Publication PMC1435744
No constants are given. Whether binding was seen depends on the method and setting. For some assays here: Binding seen in cells or lysates may run through a third protein. Some entries that bind do so weakly or less than the wild type. Tags and fused reporters may be left off the sequences shown.

T1: mr-s (major retinal SAM domain protein), full-length, yeast two-hybrid fusion (mouse) (UniProt Q1RNF8)
T1 sequence: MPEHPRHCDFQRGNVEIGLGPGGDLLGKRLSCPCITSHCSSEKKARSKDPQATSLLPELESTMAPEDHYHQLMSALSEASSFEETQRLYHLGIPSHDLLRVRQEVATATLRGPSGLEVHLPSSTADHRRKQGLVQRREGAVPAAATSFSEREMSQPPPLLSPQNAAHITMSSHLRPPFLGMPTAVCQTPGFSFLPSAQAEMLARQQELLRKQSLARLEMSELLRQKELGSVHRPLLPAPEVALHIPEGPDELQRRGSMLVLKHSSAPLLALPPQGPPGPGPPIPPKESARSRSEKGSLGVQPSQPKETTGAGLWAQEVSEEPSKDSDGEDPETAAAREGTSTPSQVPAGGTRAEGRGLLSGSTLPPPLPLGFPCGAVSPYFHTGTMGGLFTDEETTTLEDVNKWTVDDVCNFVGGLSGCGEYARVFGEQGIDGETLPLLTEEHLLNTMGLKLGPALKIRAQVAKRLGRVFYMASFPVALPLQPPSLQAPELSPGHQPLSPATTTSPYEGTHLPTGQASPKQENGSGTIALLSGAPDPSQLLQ

T2: full-length mr-s, HA-tagged or Flag-tagged, expressed in HEK293T cells (mouse) (UniProt Q1RNF8)
T2 sequence: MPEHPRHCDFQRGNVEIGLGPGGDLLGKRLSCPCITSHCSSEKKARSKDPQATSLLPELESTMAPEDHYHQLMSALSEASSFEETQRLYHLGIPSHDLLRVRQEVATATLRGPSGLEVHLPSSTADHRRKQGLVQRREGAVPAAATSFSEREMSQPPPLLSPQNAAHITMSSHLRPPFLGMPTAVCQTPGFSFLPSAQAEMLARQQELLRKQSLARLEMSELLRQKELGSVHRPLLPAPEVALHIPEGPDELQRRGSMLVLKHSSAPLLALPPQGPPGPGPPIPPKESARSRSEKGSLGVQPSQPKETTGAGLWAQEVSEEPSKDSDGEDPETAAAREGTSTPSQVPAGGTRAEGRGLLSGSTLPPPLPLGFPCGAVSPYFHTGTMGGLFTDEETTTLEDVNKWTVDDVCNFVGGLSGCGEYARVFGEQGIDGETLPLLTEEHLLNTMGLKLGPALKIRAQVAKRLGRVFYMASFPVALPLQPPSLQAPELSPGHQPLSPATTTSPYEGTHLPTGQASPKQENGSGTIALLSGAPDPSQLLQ

T3: mr-s ΔSAM (amino acids 1 to 400), HA-tagged or Flag-tagged, expressed in HEK293T cells (mouse) (UniProt Q1RNF8)
T3 sequence: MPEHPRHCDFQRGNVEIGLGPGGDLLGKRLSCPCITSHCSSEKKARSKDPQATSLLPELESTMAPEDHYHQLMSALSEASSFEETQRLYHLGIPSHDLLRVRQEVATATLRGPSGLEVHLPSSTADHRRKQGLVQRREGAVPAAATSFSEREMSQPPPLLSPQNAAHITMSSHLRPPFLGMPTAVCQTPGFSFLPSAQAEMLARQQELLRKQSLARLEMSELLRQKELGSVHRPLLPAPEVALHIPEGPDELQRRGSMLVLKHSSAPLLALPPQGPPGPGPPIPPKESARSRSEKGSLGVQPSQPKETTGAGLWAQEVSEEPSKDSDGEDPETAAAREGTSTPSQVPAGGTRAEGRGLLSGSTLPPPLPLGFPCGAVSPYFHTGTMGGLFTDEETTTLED


Assays:
[1] = target: C-terminal portion of mr-s (amino acids 391 to 542), yeast two-hybrid fusion (mouse) (UniProt Q1RNF8); assay: two-hybrid; GAL4 assay: full-length, N (1-400) and C (391-542) of mr-s in pGBKT7 and pGADT7; lacZ scored by blue colour on X-gal plates (++ after 12 hr, + after 24 hr at 37°C)
[2] = target: T1, mr-s (major retinal SAM domain protein), full-length, yeast two-hybrid fusion (mouse); assay: as above
[3] = target: T2, full-length mr-s, HA-tagged or Flag-tagged, expressed in HEK293T cells (mouse); assay: co-IP; HEK293T co-transfected with HA- and Flag-tagged constructs; 1 mg lysate precipitated with anti-Flag antibody and protein G-Sepharose, 4°C, 2 hrs, 150 mM NaCl, 1% Nonidet P-40; detected by anti-HA blot
[4] = target: T3, mr-s ΔSAM (amino acids 1 to 400), HA-tagged or Flag-tagged, expressed in HEK293T cells (mouse); assay: as above
[5] = target: N-terminal portion of mr-s (amino acids 1 to 400), yeast two-hybrid fusion (mouse) (UniProt Q1RNF8); assay: two-hybrid; GAL4 assay: full-length, N (1-400) and C (391-542) of mr-s in pGBKT7 and pGADT7; lacZ scored by blue colour on X-gal plates (++ after 12 hr, + after 24 hr at 37°C)
[6] = target: T2, full-length mr-s, HA-tagged or Flag-tagged, expressed in HEK293T cells (mouse); assay: co-IP; HEK293T co-transfected with full-HA and Flag-tagged full-length wild type or mutants; precipitated with anti-HA antibody, detected by anti-Flag antibody

| Binder | binding [2] | binding [3] | binding [4] | binding [6] | also measured |
| --- | --- | --- | --- | --- | --- |
| C-terminal portion of mr-s (amino acids 391 to 542), yeast two-hybrid fusion (domain or fragment, UniProt Q1RNF8 391-542) TDEETTTLEDVNKWTVDDVCNFVGGLSGCGEYARVFGEQGIDGETLPLLTEEHLLNTMGLKLGPALKIRAQVAKRLGRVFYMASFPVALPLQPPSLQAPELSPGHQPLSPATTTSPYEGTHLPTGQASPKQENGSGTIALLSGAPDPSQLLQ | binds |  |  |  | binding [1]: binds |
| N-terminal portion of mr-s (amino acids 1 to 400), yeast two-hybrid fusion (domain or fragment, UniProt Q1RNF8 1-400) MPEHPRHCDFQRGNVEIGLGPGGDLLGKRLSCPCITSHCSSEKKARSKDPQATSLLPELESTMAPEDHYHQLMSALSEASSFEETQRLYHLGIPSHDLLRVRQEVATATLRGPSGLEVHLPSSTADHRRKQGLVQRREGAVPAAATSFSEREMSQPPPLLSPQNAAHITMSSHLRPPFLGMPTAVCQTPGFSFLPSAQAEMLARQQELLRKQSLARLEMSELLRQKELGSVHRPLLPAPEVALHIPEGPDELQRRGSMLVLKHSSAPLLALPPQGPPGPGPPIPPKESARSRSEKGSLGVQPSQPKETTGAGLWAQEVSEEPSKDSDGEDPETAAAREGTSTPSQVPAGGTRAEGRGLLSGSTLPPPLPLGFPCGAVSPYFHTGTMGGLFTDEETTTLED | binds weakly |  |  |  | binding [5]: binds weakly |
| Flag-tagged full-length mr-s G453A (protein, UniProt Q1RNF8 1-542) MPEHPRHCDFQRGNVEIGLGPGGDLLGKRLSCPCITSHCSSEKKARSKDPQATSLLPELESTMAPEDHYHQLMSALSEASSFEETQRLYHLGIPSHDLLRVRQEVATATLRGPSGLEVHLPSSTADHRRKQGLVQRREGAVPAAATSFSEREMSQPPPLLSPQNAAHITMSSHLRPPFLGMPTAVCQTPGFSFLPSAQAEMLARQQELLRKQSLARLEMSELLRQKELGSVHRPLLPAPEVALHIPEGPDELQRRGSMLVLKHSSAPLLALPPQGPPGPGPPIPPKESARSRSEKGSLGVQPSQPKETTGAGLWAQEVSEEPSKDSDGEDPETAAAREGTSTPSQVPAGGTRAEGRGLLSGSTLPPPLPLGFPCGAVSPYFHTGTMGGLFTDEETTTLEDVNKWTVDDVCNFVGGLSGCGEYARVFGEQGIDGETLPLLTEEHLLNTMGLKLAPALKIRAQVAKRLGRVFYMASFPVALPLQPPSLQAPELSPGHQPLSPATTTSPYEGTHLPTGQASPKQENGSGTIALLSGAPDPSQLLQ |  |  |  | binds |  |

More lines, main results first:

| binding [2] | binding [3] | binding [4] | binding [6] | Binder | also measured |
| --- | --- | --- | --- | --- | --- |
|  | binds | binds |  | mr-s ΔSAM (amino acids 1 to 400), HA-tagged or Flag-tagged, expressed in HEK293T cells (domain or fragment, UniProt Q1RNF8 1-400) MPEHPRHCDFQRGNVEIGLGPGGDLLGKRLSCPCITSHCSSEKKARSKDPQATSLLPELESTMAPEDHYHQLMSALSEASSFEETQRLYHLGIPSHDLLRVRQEVATATLRGPSGLEVHLPSSTADHRRKQGLVQRREGAVPAAATSFSEREMSQPPPLLSPQNAAHITMSSHLRPPFLGMPTAVCQTPGFSFLPSAQAEMLARQQELLRKQSLARLEMSELLRQKELGSVHRPLLPAPEVALHIPEGPDELQRRGSMLVLKHSSAPLLALPPQGPPGPGPPIPPKESARSRSEKGSLGVQPSQPKETTGAGLWAQEVSEEPSKDSDGEDPETAAAREGTSTPSQVPAGGTRAEGRGLLSGSTLPPPLPLGFPCGAVSPYFHTGTMGGLFTDEETTTLED |  |
| binds |  |  |  | mr-s (major retinal SAM domain protein), full-length, yeast two-hybrid fusion (protein, UniProt Q1RNF8 1-542) MPEHPRHCDFQRGNVEIGLGPGGDLLGKRLSCPCITSHCSSEKKARSKDPQATSLLPELESTMAPEDHYHQLMSALSEASSFEETQRLYHLGIPSHDLLRVRQEVATATLRGPSGLEVHLPSSTADHRRKQGLVQRREGAVPAAATSFSEREMSQPPPLLSPQNAAHITMSSHLRPPFLGMPTAVCQTPGFSFLPSAQAEMLARQQELLRKQSLARLEMSELLRQKELGSVHRPLLPAPEVALHIPEGPDELQRRGSMLVLKHSSAPLLALPPQGPPGPGPPIPPKESARSRSEKGSLGVQPSQPKETTGAGLWAQEVSEEPSKDSDGEDPETAAAREGTSTPSQVPAGGTRAEGRGLLSGSTLPPPLPLGFPCGAVSPYFHTGTMGGLFTDEETTTLEDVNKWTVDDVCNFVGGLSGCGEYARVFGEQGIDGETLPLLTEEHLLNTMGLKLGPALKIRAQVAKRLGRVFYMASFPVALPLQPPSLQAPELSPGHQPLSPATTTSPYEGTHLPTGQASPKQENGSGTIALLSGAPDPSQLLQ |  |
|  | binds | binds weakly | binds | full-length mr-s, HA-tagged or Flag-tagged, expressed in HEK293T cells (protein, UniProt Q1RNF8 1-542) MPEHPRHCDFQRGNVEIGLGPGGDLLGKRLSCPCITSHCSSEKKARSKDPQATSLLPELESTMAPEDHYHQLMSALSEASSFEETQRLYHLGIPSHDLLRVRQEVATATLRGPSGLEVHLPSSTADHRRKQGLVQRREGAVPAAATSFSEREMSQPPPLLSPQNAAHITMSSHLRPPFLGMPTAVCQTPGFSFLPSAQAEMLARQQELLRKQSLARLEMSELLRQKELGSVHRPLLPAPEVALHIPEGPDELQRRGSMLVLKHSSAPLLALPPQGPPGPGPPIPPKESARSRSEKGSLGVQPSQPKETTGAGLWAQEVSEEPSKDSDGEDPETAAAREGTSTPSQVPAGGTRAEGRGLLSGSTLPPPLPLGFPCGAVSPYFHTGTMGGLFTDEETTTLEDVNKWTVDDVCNFVGGLSGCGEYARVFGEQGIDGETLPLLTEEHLLNTMGLKLGPALKIRAQVAKRLGRVFYMASFPVALPLQPPSLQAPELSPGHQPLSPATTTSPYEGTHLPTGQASPKQENGSGTIALLSGAPDPSQLLQ |  |
